This assay concerns the target recombinant human SIRPα variant 2 protein (human) (UniProt P78324). Nature of the assay: ELISA, antigen coated at 0.5 ug/ml, anti-mouse Fc-HRP detection. On the technique in general: An ELISA detects its analyte on a solid surface through an enzyme-linked reagent.

Protein sequences, listed by entry. Tags and fused reporters are not part of them. Lines headed by an entry give the natural chain unless they say otherwise; changes in a name come on top. Chains listed by the source or under a name are the forms on record and can include a tag or linker.
recombinant human SIRPα variant 2 protein (P78324, form named): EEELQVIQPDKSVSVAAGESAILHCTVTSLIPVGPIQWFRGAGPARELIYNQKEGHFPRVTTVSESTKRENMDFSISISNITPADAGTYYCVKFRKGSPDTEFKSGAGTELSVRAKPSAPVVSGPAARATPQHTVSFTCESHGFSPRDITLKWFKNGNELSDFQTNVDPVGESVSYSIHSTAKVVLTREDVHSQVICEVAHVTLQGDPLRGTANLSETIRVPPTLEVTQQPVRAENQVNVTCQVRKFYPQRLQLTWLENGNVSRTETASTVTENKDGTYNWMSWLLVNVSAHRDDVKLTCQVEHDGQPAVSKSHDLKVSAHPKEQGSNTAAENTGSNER

No constants are given. Whether binding was seen depends on the method and setting. Some results given as binding are weak or reduced against the parent protein; the word gives no strength.

Drawing on patent US20220169726A1, this text covers binding for one molecule.

B1: 300A6A6 (antibody, V domains shown)
VH: QVQLQQSGTELVKPGSSVKISCKASGYTFTSNYIHWIRQQPGNGLEWIGWIYPGDGDTNYNQKFNGKATLTADKSSSTAYMQLSSLTSEDYAVYFCAINYGGIWFAYWGQGTLVTVSS
VL: DIQMTQSPSSMSASLGDRVTITCQASQDIGNKLIWFQQKPGKSPRLMIHYVTNLPGGVPLRFSGSRSGSDYSLTISSLESEDMADYYCLQYKQNPLTFGSGTKLEIK
On to B1, for which the binding entry is given as “binds”.
